Where a sequence shows no end group, the ends are not given.
Assay: peptide made by a vendor
Conditions: whole synthesis

SSIEGNYTLRVDCTPLMYSLVHLTKEL
purity (crude or final not stated): purity>95%

YFSKEEWEKMKASEKIFYVYMKRKYEAMTKLGFKATLP
purity (crude or final not stated): 95%

Reference: US20090285843A1 (Mannkind Corporation, priority 2002, published 2009)
